Experimental data from PMC4197441.
Results are given in words; binding and its absence hold for the method and conditions named. Binding seen in cells or lysates may run through a third protein. Some results given as binding are weak or reduced against the parent protein; the word gives no strength.

By UniProt entry, the sequences of proteins in these tests, tags left out.
UniProt P34152: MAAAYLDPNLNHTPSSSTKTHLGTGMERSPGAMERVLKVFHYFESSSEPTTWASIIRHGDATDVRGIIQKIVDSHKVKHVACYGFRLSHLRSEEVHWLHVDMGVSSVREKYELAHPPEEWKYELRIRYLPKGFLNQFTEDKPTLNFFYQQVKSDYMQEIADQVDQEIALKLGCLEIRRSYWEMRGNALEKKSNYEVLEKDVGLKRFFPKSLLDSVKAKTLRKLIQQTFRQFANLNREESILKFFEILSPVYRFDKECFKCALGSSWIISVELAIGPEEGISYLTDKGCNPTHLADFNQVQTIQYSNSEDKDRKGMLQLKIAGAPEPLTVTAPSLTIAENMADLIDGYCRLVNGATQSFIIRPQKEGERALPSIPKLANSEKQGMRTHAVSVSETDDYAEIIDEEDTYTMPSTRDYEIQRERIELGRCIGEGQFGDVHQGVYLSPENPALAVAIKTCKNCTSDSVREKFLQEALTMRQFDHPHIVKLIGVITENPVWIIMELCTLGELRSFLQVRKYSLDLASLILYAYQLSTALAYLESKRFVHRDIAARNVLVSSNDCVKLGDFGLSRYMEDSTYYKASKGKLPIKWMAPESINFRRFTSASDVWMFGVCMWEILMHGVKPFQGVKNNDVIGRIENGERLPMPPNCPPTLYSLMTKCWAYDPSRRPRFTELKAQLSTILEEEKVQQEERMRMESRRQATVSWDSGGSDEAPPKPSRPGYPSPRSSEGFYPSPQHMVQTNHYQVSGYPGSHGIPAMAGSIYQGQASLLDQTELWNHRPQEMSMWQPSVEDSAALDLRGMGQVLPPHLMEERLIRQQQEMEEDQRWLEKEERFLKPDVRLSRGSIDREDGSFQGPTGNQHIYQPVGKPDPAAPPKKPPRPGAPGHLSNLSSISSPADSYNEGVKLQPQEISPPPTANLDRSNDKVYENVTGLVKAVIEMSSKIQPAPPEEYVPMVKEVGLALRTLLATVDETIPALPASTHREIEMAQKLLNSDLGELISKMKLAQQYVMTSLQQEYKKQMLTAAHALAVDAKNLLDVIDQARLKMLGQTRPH
UniProt P26450: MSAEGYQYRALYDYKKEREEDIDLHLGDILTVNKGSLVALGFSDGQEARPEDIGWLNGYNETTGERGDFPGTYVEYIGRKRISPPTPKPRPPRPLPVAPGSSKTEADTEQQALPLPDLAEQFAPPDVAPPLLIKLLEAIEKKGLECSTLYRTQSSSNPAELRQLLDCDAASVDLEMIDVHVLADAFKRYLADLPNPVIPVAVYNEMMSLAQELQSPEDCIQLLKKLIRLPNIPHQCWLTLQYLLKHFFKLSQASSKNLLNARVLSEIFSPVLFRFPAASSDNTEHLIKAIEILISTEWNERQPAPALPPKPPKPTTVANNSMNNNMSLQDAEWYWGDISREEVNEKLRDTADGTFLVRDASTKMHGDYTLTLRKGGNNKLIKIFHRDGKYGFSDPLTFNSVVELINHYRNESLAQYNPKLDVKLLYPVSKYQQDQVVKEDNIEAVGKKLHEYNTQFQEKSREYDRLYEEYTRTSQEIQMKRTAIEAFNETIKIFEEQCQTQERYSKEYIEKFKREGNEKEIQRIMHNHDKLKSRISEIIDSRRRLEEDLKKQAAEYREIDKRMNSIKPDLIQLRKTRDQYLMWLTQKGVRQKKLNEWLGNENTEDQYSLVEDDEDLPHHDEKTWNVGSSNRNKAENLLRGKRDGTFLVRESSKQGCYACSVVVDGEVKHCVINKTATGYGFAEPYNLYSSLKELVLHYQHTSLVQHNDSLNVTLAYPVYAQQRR

Molecular target: focal adhesion kinase (mouse (endogenous in NIH3T3)) (UniProt P34152)
Assay: co-IP; NIH3T3 cell extracts (500 µg, TX-100 lysis buffer) immunoprecipitated with anti-FAK Ab, WB with anti-HA Ab; cells without serum 16 h, then 10% serum (in suspension), FN, or FN plus serum for 20 or 60 min

binding: binds
Substance: recombinant HA-tagged p85α (regulatory subunit of phosphoinositide 3-kinase) (from UniProt P26450 1-724)
